# Measurements reported in paper PMC10070108.
# Protein sequences, listed by entry. Tags and fused reporters are not part of them.
# UniProt E9Q557: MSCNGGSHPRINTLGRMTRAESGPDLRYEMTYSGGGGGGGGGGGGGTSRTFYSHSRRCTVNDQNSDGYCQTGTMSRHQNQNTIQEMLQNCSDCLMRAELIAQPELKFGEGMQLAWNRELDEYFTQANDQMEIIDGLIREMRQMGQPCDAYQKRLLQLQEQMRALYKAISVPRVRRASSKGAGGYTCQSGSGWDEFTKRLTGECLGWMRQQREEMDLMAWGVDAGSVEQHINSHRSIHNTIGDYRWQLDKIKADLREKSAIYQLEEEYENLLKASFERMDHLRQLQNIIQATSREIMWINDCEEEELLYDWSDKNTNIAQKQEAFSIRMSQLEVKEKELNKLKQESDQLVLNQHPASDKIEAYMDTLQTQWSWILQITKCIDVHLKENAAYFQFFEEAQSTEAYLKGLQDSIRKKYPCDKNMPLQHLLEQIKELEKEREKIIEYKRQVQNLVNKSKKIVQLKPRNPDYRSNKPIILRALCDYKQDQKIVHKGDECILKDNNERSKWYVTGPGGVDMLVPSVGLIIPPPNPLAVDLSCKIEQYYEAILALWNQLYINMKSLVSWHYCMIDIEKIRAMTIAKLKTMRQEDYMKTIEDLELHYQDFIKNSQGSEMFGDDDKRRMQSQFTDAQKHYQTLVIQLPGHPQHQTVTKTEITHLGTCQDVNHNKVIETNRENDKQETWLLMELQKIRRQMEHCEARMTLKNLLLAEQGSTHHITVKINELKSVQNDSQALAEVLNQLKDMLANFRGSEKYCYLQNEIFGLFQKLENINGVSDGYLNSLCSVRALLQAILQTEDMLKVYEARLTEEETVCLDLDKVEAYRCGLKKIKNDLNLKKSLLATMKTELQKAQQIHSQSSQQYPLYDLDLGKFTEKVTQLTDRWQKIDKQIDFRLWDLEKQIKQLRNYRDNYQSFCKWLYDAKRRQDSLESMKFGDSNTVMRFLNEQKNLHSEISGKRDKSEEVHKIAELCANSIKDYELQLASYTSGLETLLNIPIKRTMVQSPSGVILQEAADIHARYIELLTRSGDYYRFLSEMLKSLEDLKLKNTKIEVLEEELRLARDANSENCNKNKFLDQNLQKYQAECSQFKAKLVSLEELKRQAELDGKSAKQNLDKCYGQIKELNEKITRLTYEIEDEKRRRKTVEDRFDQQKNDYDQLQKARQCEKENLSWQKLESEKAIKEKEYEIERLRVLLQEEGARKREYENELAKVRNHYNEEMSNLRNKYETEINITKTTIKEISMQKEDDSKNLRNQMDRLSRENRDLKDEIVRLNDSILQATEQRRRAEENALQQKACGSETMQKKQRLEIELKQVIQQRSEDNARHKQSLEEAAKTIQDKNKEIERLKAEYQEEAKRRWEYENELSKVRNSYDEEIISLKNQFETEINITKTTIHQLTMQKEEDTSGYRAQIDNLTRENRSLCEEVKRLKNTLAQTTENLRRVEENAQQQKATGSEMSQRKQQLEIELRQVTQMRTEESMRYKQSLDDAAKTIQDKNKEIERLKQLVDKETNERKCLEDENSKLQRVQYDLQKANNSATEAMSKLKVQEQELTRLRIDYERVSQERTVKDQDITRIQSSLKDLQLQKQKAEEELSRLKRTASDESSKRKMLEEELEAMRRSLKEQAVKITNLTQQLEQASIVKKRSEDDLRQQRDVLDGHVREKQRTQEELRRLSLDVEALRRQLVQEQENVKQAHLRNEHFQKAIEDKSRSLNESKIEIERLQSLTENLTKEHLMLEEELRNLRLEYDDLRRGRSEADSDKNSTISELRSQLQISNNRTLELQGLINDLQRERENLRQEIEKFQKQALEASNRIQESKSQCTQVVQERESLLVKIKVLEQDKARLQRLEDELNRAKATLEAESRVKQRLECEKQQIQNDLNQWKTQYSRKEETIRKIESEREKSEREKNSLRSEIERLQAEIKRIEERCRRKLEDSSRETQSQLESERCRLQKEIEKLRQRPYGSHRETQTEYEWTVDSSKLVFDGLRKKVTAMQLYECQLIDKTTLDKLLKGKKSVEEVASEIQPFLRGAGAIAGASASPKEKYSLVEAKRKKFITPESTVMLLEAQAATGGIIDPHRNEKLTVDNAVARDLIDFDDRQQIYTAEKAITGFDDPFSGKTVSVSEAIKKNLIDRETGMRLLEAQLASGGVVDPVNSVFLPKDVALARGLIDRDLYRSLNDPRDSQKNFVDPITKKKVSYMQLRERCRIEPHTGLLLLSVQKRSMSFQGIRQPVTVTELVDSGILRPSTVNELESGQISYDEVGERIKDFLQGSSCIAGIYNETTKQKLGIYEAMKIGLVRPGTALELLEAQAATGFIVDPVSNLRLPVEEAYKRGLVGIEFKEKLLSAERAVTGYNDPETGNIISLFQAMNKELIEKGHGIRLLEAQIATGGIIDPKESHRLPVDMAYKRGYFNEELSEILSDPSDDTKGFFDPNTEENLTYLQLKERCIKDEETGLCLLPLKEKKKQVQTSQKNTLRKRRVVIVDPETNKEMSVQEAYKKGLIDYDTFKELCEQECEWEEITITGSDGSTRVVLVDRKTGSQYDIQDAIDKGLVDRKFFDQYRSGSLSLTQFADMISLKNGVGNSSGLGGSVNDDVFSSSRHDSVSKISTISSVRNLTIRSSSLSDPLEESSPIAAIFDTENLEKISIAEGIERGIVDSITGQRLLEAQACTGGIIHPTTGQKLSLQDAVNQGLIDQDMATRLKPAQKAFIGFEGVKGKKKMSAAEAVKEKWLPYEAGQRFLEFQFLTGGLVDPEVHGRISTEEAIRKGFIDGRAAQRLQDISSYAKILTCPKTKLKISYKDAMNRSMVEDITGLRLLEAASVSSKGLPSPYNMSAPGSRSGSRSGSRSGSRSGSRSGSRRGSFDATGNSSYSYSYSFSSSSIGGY
# Results are given in words; binding and its absence hold for the method and conditions named. In cells and extracts the contact can be indirect. Some binding calls cover weakened binding; strength is not graded here.
# T1: desmoglein 2 (mouse (endogenous in HL-1)) (UniProt O55111)
# T1 sequence: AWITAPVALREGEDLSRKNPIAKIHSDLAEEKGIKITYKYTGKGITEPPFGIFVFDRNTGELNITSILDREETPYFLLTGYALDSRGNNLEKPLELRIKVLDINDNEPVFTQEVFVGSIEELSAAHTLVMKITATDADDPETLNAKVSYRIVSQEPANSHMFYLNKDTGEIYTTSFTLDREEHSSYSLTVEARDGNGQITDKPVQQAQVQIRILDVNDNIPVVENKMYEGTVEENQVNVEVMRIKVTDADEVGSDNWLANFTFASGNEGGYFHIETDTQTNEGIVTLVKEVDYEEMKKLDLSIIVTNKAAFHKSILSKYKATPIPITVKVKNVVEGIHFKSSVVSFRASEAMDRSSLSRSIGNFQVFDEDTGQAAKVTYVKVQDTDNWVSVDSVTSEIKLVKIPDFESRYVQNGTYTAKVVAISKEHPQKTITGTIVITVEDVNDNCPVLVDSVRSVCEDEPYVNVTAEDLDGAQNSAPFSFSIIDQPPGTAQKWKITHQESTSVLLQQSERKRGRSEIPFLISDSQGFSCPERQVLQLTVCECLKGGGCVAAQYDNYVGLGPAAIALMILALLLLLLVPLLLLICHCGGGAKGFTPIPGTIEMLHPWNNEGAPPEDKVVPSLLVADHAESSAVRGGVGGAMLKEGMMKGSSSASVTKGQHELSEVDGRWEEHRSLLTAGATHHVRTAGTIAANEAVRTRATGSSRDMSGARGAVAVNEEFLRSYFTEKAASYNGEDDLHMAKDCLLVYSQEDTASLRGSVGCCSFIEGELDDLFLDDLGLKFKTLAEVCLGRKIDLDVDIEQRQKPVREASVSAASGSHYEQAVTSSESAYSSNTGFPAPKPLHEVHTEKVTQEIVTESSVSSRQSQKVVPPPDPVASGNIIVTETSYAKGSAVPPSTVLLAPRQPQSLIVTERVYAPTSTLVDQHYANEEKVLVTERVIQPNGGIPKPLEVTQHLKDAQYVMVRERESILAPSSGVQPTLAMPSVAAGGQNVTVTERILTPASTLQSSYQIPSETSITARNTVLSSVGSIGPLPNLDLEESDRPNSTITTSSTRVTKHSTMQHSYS
# B1: plakophilin 2 (protein, UniProt Q9CQ73 1-795)
# chain: MAVPGSLAECGYIRTVLGQQILGHLDSSSLALPSEARLRLAGSSGRGDPAARSQRIQEQVQQTLARRGRSSAVSGNLHRTSSVPEYVYKLHVVENDFVGRQSPVTRDYDMLKAGMTATYGSRWGRAAAQYSSQKSVEERSWRQPLRRLEISPDSSPERAHYGHSEYQYAWRSHVVPGGRLTLPRYARSEILGLRQAGTARRPPGCGSFSDAVFDNGPLKPTMPTHPPGTSHSAGSLLEETTVRVSQARLQSTQSRTARSSWPRSSVRSSLREPGRMLTTAGQAAVGSGDAHGDRSVFADAQLGNADIEMTLERAVNMLDADHVPVSKISAAATFIQHESFQKSEARKRVNQLRGIPKLLQLLKLQNEDVQRAACGALRNLVFEDNDNKLEVAELNGVPRLLQVLKQTRDLETKKQITGLLWNLSSSDKLKHLMITEALLTLTESVIIPFSGWPEGDYPKANGLLDFDIFYNVTGCLRNMSSAGPDGRKMMRRCDGLIDSLVHYVRGTIADYQPDDKATENCVCILHNLSYQLEAELPEKYSQSIYMQNRNIQTNSNKSIGCFGSRSRKLKEQYQDLQMPEERSNPHGIEWLWHSIVIRMYLSLIAKSTRNYTQEASLGALQNLTAGGGPIPTLVARMVVQKENGLQHTRKMLHVGDPSVKKTAVSLLRNLSRNLSLQNEIAKETLPDLVSIIPDTVPSTDLLIETTASACYTLNNLMQNSYQNARDLLNTGGLQKIMTISIGEGYAPNKASKAASVLLYSLWAHTELHHAYKKAQFKKTDFVNSRTAKAYHSLKD
# B2: desmoglein 2 (protein, UniProt O55111 55-1122)
# chain: AWITAPVALREGEDLSRKNPIAKIHSDLAEEKGIKITYKYTGKGITEPPFGIFVFDRNTGELNITSILDREETPYFLLTGYALDSRGNNLEKPLELRIKVLDINDNEPVFTQEVFVGSIEELSAAHTLVMKITATDADDPETLNAKVSYRIVSQEPANSHMFYLNKDTGEIYTTSFTLDREEHSSYSLTVEARDGNGQITDKPVQQAQVQIRILDVNDNIPVVENKMYEGTVEENQVNVEVMRIKVTDADEVGSDNWLANFTFASGNEGGYFHIETDTQTNEGIVTLVKEVDYEEMKKLDLSIIVTNKAAFHKSILSKYKATPIPITVKVKNVVEGIHFKSSVVSFRASEAMDRSSLSRSIGNFQVFDEDTGQAAKVTYVKVQDTDNWVSVDSVTSEIKLVKIPDFESRYVQNGTYTAKVVAISKEHPQKTITGTIVITVEDVNDNCPVLVDSVRSVCEDEPYVNVTAEDLDGAQNSAPFSFSIIDQPPGTAQKWKITHQESTSVLLQQSERKRGRSEIPFLISDSQGFSCPERQVLQLTVCECLKGGGCVAAQYDNYVGLGPAAIALMILALLLLLLVPLLLLICHCGGGAKGFTPIPGTIEMLHPWNNEGAPPEDKVVPSLLVADHAESSAVRGGVGGAMLKEGMMKGSSSASVTKGQHELSEVDGRWEEHRSLLTAGATHHVRTAGTIAANEAVRTRATGSSRDMSGARGAVAVNEEFLRSYFTEKAASYNGEDDLHMAKDCLLVYSQEDTASLRGSVGCCSFIEGELDDLFLDDLGLKFKTLAEVCLGRKIDLDVDIEQRQKPVREASVSAASGSHYEQAVTSSESAYSSNTGFPAPKPLHEVHTEKVTQEIVTESSVSSRQSQKVVPPPDPVASGNIIVTETSYAKGSAVPPSTVLLAPRQPQSLIVTERVYAPTSTLVDQHYANEEKVLVTERVIQPNGGIPKPLEVTQHLKDAQYVMVRERESILAPSSGVQPTLAMPSVAAGGQNVTVTERILTPASTLQSSYQIPSETSITARNTVLSSVGSIGPLPNLDLEESDRPNSTITTSSTRVTKHSTMQHSYS
# Key:
# [1] = target: desmoplakin (mouse (endogenous in HL-1)) (UniProt E9Q557); experiment: co-IP; DP immunoprecipitated from HL-1 lysates (RIPA lysis buffer); 1 ug antibody to 1.5 mg lysate overnight at 4°C, Protein G Dynabeads, washes incl. 2 M urea buffer; immunoblots for EGFR, DSG2, PKP2, PG; cells treated with vehicle, erlotinib or PP2 (no significant changes)
# [2] = target: T1, desmoglein 2 (mouse (endogenous in HL-1)); experiment: co-IP; DSG2 immunoprecipitated from HL-1 lysates (RIPA lysis buffer); 1 ug antibody to 1.5 mg lysate overnight at 4°C, Protein G Dynabeads, washes incl. 2 M urea buffer; immunoblots for EGFR, PG, DP, PKP2; cells with or without erlotinib (complex not altered)
Binder,binding [1],binding [2]
B1,binds,binds
B2,binds,–
